Results on one substance are retold here after paper PMC10047868.

Chains of the proteins cited; added tags and fusions are not shown. Residues count along the entry.
UniProt P15999, residues 44-553: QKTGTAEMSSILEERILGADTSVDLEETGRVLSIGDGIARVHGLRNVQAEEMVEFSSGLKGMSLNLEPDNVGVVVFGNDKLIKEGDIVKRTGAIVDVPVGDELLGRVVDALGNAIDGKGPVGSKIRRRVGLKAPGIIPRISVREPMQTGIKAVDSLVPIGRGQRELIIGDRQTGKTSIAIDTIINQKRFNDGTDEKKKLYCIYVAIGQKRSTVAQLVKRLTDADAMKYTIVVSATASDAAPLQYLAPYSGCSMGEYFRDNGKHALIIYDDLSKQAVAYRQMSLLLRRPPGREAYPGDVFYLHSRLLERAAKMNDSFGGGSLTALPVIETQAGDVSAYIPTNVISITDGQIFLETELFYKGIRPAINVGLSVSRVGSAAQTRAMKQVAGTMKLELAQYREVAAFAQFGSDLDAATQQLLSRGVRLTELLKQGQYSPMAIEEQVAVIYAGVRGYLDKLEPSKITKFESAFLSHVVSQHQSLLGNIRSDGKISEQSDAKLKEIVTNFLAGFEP
UniProt P02091: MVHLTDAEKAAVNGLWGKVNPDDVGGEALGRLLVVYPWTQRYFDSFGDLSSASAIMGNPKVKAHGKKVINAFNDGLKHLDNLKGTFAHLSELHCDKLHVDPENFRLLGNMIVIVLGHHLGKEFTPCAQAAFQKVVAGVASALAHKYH

These are yes or no findings as the source states them, for the method shown. Binding seen in cells or lysates may run through a third protein. Some binding calls cover weakened binding; strength is not graded here.

The target in this assay is ATP synthase subunit a (ATP5A), rat (rat (endogenous in rat liver)) (UniProt P15999). Briefly: co-IP; anti-ATP5A antibody on Dynabeads (Dynabeads Co-Immunoprecipitation Kit), rat liver lysate (text: mitochondria isolated from rat liver tissue); detection by Western blot. (In western blotting, separated proteins are transferred to a membrane and probed.)

Turning to “Haemoglobin beta, rat (from UniProt P02091 1-147)”, the binding entry is “binds”.
